The record followed here is paper PMC6593412.

These are yes or no findings as the source states them, for the method shown. Some entries that bind do so weakly or less than the wild type.

The target of the test is T1, bovine asialofetuin (bovine) (UniProt P12763).
T1 sequence (chain, glycoprotein, asialo form (asialofetuin)): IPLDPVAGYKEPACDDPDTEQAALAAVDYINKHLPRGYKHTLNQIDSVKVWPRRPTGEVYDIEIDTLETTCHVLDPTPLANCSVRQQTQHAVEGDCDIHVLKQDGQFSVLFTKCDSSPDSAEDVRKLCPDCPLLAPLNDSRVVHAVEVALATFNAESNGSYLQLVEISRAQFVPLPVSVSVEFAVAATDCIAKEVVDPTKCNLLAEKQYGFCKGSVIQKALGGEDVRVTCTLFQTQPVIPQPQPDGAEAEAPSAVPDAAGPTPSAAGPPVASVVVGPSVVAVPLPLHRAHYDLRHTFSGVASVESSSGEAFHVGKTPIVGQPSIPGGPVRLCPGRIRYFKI
Nature of the test: ELISA; ASF (50 uL of 10 ug/mL in sodium carbonate buffer pH 9.6) immobilised on microtiter plates overnight; blocked with 5% BSA in PBST; different amounts of Gal-13 or Gal-14 incubated 1 h in PBST with 0.5% BSA; detected with anti-His6-HRP, TMB, 450 nm; also after pre-incubation of 50 ug/mL galectin on lactose-agarose beads; both purified. In general terms: ELISA stands for enzyme-linked immunosorbent assay.

B1: Recombinant galectin-14 (protein, UniProt Q8TCE9 1-139)
chain: MSSLPVPYTLPVSLPVGSCVIITGTPILTFVKDPQLEVNFYTGMDEDSDIAFQFRLHFGHPAIMNSCVFGIWRYEEKCYYLPFEDGKPFELCIYVRHKEYKVMVNGQRIYNFAHRFPPASVKMLQVFRDISLTRVLISD
Take B1: the binding entry was “binds”.

B2: Recombinant galectin-13 (protein, UniProt Q9UHV8 1-139)
chain: MSSLPVPYKLPVSLSVGSCVIIKGTPIHSFINDPQLQVDFYTDMDEDSDIAFRFRVHFGNHVVMNRREFGIWMLEETTDYVPFEDGKQFELCIYVHYNEYEIKVNGIRIYGFVHRIPPSFVKMVQVSRDISLTSVCVCN
In the case of B2, the binding result was “binds”.
